Results on one substance are retold here after patent US20090074768A1.

Amino acid sequences for entries named in this document (tags omitted). A change or cut given only in a name is not applied to a line headed by its entry.
UniProt P27037: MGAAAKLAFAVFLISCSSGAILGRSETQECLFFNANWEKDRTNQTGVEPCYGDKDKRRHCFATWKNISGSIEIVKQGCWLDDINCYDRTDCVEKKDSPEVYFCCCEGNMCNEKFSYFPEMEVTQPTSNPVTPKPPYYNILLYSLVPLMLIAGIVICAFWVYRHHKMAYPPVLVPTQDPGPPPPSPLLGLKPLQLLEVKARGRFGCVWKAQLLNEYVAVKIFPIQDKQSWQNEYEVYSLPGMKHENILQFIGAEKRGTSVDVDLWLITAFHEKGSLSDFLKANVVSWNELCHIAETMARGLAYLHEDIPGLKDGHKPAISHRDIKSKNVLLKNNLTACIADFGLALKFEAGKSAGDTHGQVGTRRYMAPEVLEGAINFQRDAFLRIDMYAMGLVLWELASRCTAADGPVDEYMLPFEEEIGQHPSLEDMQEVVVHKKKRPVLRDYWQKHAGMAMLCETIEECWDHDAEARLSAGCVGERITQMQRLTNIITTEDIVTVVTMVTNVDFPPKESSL

Results are given in words; binding and its absence hold for the method and conditions named. Some entries that bind do so weakly or less than the wild type.

The target in this test is T1, GDF-11 (UniProt O95390).
T1 sequence (looked up): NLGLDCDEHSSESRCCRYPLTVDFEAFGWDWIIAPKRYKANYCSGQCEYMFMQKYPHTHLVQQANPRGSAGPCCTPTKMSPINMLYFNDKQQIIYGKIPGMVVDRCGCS
The test can be described thus: SPR (Biacore), ligand immobilized on CM5 chip.

As for “ActRIIa-mFc (from UniProt P27037 21-135) (Fc fusion)”, the binding result is on record as “binds”.
